In the supplement of paper PMC11732987, “Enantioselective OTUD7B fragment discovery through chemoproteomics screening and high-throughput optimisation” (Communications Chemistry, 2025):
Some of the results follow. The data scatter; read single values as rough.

Chains of the proteins cited; added tags and fusions are not shown. Lines headed by an entry give the natural chain unless they say otherwise; changes in a name come on top. Residues count along the entry.
UniProt Q8NG31: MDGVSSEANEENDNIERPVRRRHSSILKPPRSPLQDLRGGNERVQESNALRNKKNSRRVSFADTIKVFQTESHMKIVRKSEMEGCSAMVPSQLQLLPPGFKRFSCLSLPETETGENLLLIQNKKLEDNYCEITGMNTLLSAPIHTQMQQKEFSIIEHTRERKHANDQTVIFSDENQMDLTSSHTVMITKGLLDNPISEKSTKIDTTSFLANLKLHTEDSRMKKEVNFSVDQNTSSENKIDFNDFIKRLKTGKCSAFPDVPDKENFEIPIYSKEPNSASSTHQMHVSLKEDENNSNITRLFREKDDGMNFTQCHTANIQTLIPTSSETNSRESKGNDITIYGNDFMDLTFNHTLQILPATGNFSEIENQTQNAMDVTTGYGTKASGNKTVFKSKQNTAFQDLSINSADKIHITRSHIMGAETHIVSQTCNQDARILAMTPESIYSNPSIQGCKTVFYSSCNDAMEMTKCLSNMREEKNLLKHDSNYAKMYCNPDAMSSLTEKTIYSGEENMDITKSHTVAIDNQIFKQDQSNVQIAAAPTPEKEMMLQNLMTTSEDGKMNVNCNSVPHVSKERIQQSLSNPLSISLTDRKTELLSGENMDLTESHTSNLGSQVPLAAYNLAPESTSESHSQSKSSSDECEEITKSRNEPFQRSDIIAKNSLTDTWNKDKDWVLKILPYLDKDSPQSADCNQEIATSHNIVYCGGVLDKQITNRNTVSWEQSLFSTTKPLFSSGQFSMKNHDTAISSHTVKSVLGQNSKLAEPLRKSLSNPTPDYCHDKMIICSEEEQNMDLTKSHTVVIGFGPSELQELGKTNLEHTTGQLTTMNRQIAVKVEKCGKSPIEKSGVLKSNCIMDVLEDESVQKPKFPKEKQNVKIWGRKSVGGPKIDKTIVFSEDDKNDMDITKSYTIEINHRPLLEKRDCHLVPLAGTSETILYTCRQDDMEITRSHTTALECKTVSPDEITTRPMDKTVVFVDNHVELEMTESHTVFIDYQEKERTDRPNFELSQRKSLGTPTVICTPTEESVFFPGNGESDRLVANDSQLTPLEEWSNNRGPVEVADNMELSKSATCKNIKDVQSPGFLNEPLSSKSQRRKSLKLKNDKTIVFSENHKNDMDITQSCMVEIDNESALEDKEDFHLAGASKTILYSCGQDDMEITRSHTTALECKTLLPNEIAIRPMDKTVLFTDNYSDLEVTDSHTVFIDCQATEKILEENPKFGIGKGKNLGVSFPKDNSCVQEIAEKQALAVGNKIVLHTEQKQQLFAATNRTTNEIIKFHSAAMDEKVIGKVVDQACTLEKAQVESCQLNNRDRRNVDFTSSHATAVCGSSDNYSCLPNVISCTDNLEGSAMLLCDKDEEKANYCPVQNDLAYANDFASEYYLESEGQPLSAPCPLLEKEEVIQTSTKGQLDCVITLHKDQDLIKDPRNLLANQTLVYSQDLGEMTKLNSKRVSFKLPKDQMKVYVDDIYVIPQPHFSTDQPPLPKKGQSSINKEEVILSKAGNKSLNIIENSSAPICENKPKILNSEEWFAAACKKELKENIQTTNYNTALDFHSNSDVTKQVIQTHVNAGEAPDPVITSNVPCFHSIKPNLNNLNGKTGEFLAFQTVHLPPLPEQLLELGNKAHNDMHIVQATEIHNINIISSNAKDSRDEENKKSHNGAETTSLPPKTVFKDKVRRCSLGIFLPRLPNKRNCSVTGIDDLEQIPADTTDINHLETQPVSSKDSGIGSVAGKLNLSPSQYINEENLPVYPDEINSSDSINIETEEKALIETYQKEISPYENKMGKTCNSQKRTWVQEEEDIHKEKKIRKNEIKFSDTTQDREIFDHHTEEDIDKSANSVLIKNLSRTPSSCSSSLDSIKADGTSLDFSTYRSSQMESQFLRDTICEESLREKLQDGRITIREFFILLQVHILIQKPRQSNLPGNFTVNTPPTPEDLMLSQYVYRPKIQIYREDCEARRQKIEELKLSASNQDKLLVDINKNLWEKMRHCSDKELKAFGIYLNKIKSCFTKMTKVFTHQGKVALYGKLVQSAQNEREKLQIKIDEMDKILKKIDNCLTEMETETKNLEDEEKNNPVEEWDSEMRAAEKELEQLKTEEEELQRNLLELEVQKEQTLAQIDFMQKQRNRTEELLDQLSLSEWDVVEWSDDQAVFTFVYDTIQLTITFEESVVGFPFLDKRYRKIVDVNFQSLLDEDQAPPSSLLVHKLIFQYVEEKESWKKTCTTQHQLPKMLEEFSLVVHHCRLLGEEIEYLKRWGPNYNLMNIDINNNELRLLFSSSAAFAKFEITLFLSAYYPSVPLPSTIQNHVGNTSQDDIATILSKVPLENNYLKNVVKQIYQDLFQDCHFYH
UniProt P49917, 2-25: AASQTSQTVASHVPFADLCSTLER
UniProt Q96GY3, 133-156: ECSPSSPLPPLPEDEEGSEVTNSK
UniProt Q9UMN6: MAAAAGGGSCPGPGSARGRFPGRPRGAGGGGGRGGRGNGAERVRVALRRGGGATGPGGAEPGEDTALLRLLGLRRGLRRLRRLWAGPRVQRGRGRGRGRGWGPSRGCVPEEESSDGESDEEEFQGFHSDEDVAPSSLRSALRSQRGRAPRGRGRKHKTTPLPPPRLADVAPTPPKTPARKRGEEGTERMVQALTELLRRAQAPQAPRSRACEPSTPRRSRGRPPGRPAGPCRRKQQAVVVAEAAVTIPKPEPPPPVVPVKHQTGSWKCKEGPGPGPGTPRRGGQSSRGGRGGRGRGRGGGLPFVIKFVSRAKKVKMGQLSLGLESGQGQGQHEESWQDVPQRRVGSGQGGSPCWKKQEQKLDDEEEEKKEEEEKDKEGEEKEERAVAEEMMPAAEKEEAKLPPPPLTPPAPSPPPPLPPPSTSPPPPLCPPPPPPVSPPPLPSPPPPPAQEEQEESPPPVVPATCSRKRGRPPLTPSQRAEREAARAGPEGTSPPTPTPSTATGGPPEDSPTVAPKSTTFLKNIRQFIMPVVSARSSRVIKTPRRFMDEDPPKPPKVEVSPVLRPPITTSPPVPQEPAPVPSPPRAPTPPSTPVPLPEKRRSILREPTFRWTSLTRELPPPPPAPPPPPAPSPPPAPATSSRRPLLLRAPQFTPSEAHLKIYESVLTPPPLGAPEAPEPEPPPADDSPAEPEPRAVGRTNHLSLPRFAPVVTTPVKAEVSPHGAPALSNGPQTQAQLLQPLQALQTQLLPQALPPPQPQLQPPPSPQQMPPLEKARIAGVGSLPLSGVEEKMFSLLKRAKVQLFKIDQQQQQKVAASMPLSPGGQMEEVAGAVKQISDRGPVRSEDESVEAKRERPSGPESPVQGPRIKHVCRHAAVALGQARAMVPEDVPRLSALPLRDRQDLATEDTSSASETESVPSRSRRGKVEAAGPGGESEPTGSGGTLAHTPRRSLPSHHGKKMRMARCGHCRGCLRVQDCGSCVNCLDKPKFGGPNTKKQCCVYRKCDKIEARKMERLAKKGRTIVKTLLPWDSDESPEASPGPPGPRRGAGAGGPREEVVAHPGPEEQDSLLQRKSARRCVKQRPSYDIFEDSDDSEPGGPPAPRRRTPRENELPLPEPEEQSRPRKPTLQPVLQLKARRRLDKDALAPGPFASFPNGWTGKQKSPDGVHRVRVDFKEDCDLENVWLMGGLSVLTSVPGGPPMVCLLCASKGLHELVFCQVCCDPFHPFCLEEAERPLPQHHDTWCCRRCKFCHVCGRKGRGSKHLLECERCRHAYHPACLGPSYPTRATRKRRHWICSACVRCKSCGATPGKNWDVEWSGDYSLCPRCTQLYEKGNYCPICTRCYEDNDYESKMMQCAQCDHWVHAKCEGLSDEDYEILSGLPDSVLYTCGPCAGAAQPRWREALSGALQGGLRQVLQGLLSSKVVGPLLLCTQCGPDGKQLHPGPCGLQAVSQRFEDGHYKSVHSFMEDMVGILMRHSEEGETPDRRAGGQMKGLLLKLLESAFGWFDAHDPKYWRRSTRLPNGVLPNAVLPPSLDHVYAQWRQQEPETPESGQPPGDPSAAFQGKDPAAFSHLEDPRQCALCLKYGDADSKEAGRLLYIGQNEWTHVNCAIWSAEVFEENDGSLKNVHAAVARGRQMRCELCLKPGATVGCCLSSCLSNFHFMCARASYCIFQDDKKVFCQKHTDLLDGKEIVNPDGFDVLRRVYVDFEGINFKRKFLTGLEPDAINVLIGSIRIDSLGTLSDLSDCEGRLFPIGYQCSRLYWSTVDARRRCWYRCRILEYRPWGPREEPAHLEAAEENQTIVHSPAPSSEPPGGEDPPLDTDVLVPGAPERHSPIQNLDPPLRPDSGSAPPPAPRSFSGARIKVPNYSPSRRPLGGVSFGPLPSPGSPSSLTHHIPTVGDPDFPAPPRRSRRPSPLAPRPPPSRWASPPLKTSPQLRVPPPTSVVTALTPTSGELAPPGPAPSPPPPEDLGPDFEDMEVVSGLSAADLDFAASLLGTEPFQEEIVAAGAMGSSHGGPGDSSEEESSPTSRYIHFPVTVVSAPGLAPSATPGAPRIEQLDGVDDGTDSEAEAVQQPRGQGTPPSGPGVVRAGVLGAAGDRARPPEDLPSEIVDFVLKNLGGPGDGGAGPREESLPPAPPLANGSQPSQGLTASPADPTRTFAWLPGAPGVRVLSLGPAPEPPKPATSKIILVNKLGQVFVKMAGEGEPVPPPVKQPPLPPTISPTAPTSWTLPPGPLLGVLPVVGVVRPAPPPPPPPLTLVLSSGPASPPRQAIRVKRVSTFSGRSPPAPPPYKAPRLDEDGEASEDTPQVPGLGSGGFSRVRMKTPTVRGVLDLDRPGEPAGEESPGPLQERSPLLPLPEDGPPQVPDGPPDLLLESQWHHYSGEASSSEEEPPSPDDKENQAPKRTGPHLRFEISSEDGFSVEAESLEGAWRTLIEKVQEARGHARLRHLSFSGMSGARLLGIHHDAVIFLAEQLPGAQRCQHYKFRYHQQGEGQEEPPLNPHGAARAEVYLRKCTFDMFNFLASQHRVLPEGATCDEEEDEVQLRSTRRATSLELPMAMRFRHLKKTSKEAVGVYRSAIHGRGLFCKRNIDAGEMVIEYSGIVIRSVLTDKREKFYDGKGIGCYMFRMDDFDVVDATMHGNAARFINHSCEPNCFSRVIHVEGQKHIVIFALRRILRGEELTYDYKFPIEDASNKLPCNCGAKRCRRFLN
UniProt O75427: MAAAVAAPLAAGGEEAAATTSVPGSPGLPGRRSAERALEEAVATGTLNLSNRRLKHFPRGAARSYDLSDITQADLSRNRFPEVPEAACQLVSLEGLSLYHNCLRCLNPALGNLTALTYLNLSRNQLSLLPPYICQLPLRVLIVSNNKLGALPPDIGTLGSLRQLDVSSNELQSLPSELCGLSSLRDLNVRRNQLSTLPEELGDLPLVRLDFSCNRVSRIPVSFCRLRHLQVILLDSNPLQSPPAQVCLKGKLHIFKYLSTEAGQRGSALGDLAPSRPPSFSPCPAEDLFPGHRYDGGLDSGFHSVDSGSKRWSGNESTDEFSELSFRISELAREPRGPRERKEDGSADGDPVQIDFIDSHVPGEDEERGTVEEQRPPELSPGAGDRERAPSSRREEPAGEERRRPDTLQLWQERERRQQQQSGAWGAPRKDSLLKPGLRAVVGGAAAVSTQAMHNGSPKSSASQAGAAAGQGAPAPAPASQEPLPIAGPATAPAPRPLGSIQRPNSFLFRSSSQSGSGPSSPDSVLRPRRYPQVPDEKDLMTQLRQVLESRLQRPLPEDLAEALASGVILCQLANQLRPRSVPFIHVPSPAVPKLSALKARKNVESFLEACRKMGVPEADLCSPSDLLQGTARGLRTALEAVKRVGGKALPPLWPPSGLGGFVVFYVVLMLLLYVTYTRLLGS
UniProt Q9UJU2, 2-36: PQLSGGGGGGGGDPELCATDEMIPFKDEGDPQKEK
UniProt Q9UN81: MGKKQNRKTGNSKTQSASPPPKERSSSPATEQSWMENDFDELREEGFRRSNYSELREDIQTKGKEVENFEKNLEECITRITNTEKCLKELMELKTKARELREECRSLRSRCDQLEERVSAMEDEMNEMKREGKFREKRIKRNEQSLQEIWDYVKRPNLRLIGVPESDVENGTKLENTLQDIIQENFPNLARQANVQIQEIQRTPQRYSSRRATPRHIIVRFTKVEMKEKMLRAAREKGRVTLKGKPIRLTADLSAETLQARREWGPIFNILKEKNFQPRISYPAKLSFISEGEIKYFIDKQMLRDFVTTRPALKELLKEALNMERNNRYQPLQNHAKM
UniProt Q6UWP7: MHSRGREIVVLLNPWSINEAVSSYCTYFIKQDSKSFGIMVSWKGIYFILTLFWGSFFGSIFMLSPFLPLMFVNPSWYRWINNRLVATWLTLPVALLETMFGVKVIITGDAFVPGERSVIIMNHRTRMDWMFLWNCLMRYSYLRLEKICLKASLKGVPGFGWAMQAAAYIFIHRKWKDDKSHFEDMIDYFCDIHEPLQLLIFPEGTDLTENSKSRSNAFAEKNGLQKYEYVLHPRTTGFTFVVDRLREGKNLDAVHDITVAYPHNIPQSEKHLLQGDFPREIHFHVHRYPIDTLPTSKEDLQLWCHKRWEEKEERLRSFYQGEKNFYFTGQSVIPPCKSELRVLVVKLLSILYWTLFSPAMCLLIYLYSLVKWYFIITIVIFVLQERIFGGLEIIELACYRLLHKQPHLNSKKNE

Key:
[1] = compound: ClCC(=O)N[C@@H]1CCCc2ccccc12; test: log2 mean competition ratio of IA-DTB cysteine labelling (DMSO/compound) (log2 ratio); higher = stronger cysteine engagement by compound; details: treatment time: 4 h, cell line lysate: HEK293T
Procedure: (§1)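 IA-DTB competitive cysteine chemoproteomics in HEK293T RIPA lysate. Lysates were treated with compound 29 or 30 at 50 or 200 µM for 4 h, then IA-DTB (500 µM, 1 h), trypsin-digested, NeutrAvidin-enriched and analysed by diaPASEF. Competition ratio = intensity DMSO / intensity compound (n=4 treated, n=64 DMSO); binding: mean log2 CR ≥ 1 and p ≤ 0.05 plus QC filters. Target is the cysteine site.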

[2] = compound: ClCC(=O)N[C@H]1CCCc2ccccc12; test: as above; details: treatment time: 4 h, cell line lysate: HEK293T
Procedure: as §1

Target	log2 mean competition ratio ([1]; 50 µM)	log2 mean competition ratio ([1]; 200 µM)	log2 mean competition ratio ([2]; 50 µM)	log2 mean competition ratio ([2]; 200 µM)
LMBRD2 C267 (UniProt Q68DH5)	-0.0276	0.00464	0.0622	0.0351
KIF7 C1065	-0.0451	-0.135	-0.0943	-0.0689
KMT2D C414 (UniProt O14686)	-0.0159	-0.186	0.275	-0.0809
KNL1 C1881 (UniProt Q8NG31)	-0.109	-0.0172	-0.0605	0.122
KPNA2 C133 (UniProt P52292)	0.0601	0.612	0.138	0.224
KLC4 C489 (UniProt Q9NSK0)	-0.457	0.111	-0.514	0.115
KPNA6 C296 (UniProt O60684)	-0.213	-0.193	0.0437	-0.207
LARS2 C177 (UniProt Q15031)	-0.233	-0.0262	-0.414	-0.25
L2HGDH C187 (UniProt Q9H9P8)	0.165	0.244	-0.388	0.0694
LIG4 C20 (UniProt P49917)	0.225	-0.104	0.378	-0.121
LIN37 C134 (UniProt Q96GY3)	-0.418	0.234	-0.0916	0.0145
LIG1 C565 (UniProt P18858)	-0.206	0.0213	-0.468	-0.00265
LAS1L C256 (UniProt Q9Y4W2)	-0.0916	0.0537	-0.0975	0.091
KTN1 C736	0.000238	-0.188	0.0253	-0.216
LRP1 C2660 (UniProt Q07954)	-0.0783	-0.0782	0.385	0.228
KTN1 C1136	0.00094	-0.216	-0.546	-0.354
LRCH2 C507	-0.251	-0.000438	0.0107	0.155
LOC102724159 C60	-0.172	0.0755	-0.107	-0.0194
KMT2A C2783 (UniProt Q03164)	0.138	0.383	0.413	0.279
LAP3 C129 (UniProt P28838)	-0.042	0.0987	0.014	0.149
LRATD2 C208	-0.00459	-0.221	0.502	-0.0821
KMT2B C10 (UniProt Q9UMN6)	0.0172	-0.0377	-0.0613	0.02
LANCL2 C187 (UniProt Q9NS86)	-0.241	0.0957	-0.144	0.0553

Single records, from the list above. Values in the order: log2 mean competition ratio ([1]; 50 µM) | log2 mean competition ratio ([1]; 200 µM) | log2 mean competition ratio ([2]; 50 µM) | log2 mean competition ratio ([2]; 200 µM)
LRATD2 C208 is entered as -0.00459 | -0.221 | 0.502 | -0.0821
LARS2 C177 (UniProt Q15031) is entered as -0.233 | -0.0262 | -0.414 | -0.25
KTN1 C736 is entered as 0.000238 | -0.188 | 0.0253 | -0.216

Next part.

Target	log2 mean competition ratio ([1]; 50 µM)	log2 mean competition ratio ([1]; 200 µM)	log2 mean competition ratio ([2]; 50 µM)	log2 mean competition ratio ([2]; 200 µM)
LCORL C193 (UniProt Q8N3X6)	-0.0544	0.0547	0.309	0.0989
LRCH4 C213 (UniProt O75427)	0.0468	0.317	0.108	0.436
LEF1 C18 (UniProt Q9UJU2)	-0.446	-0.25	0.139	-0.274
KLHL23 C245	-0.039	0.00557	-0.0685	0.475
LIN9 C435 (UniProt Q5TKA1)	-0.122	0.358	-0.107	0.422
L1RE1 C76 (UniProt Q9UN81)	-0.184	-0.0402	-0.0389	0.13
LCLAT1 C304 (UniProt Q6UWP7)	-0.0191	0.0875	-0.258	-0.0488
KNTC1 C911 (UniProt P50748)	-0.252	0.85	-0.358	0.147
KLHL11 C526 (UniProt Q9NVR0)	-0.0889	-0.247	-0.266	-0.072
LCMT2 C408 (UniProt O60294)	0.104	0.131	0.142	-0.103
LRBA C128	-0.0341	-0.122	-0.41	-0.26
LPCAT3 C316 (UniProt Q6P1A2)	-0.328	-0.246	-0.132	-0.229
L3MBTL3 C682 (UniProt Q96JM7)	0.0288	-0.18	-0.383	-0.173
LIG3 C729 (UniProt P49916)	-0.00657	0.0945	0.209	0.0866
LIG1 C719 (UniProt P18858)	-0.112	-0.235	0.52	0.0605
LMAN2 C239 (UniProt Q12907)	0.0834	0.0707	0.24	-0.0659
LIG3 C270 (UniProt P49916)	0.303	-0.0284	0.168	0.0984
KRR1 C75 (UniProt Q13601)	0.0305	-0.229	0.396	-0.217
LETM1 C379 (UniProt O95202)	-0.0451	0.112	0.183	0.152
KNL1 C1529 (UniProt Q8NG31)	0.322	-0.0617	-0.0613	0.224
KNL1 C562 (UniProt Q8NG31)	0.134	0.0696	-0.259	-0.126
KRI1 C531 (UniProt Q8N9T8)	0.42	0.334	-0.337	-0.12
